The list shows a part of the results.
Key:
Experiment in all cases: log2 fold change, soluble protein after heating vs DMSO (PISA); higher = thermal stabilisation; K562 lysate, 10 uM; active = over 0.2 and 3.5 SD of the protein, either way, in both replicates (recomputed)
[1] = compound: NCC(=O)Nc1ccc(-n2nc(C(F)(F)F)cc2-c2ccc3c(ccc4ccccc43)c2)cc1
Procedure, shortened: (§1)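 Values give the log-two fold change in thermal stability against solvent controls, from duplicates. Crude K562 extract at 1 mg/mL protein, made by dounce homogenisation in PBS pH 7.4 with 1 mM MgCl2, was treated with 10 μM compound for 30 min. After 3 min heating across 48°C-58°C, aliquots were pooled, adjusted to 0.5% NP-40 at 4°C and centrifuged at 21,000xg for 90 min. The supernatant was measured by TMTpro 16plex LC-MS/MS with channel sums equalised.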

Amino acid sequences for entries named in this document (tags omitted). A change or cut given only in a name is not applied to a line headed by its entry.
UniProt Q9NWK9: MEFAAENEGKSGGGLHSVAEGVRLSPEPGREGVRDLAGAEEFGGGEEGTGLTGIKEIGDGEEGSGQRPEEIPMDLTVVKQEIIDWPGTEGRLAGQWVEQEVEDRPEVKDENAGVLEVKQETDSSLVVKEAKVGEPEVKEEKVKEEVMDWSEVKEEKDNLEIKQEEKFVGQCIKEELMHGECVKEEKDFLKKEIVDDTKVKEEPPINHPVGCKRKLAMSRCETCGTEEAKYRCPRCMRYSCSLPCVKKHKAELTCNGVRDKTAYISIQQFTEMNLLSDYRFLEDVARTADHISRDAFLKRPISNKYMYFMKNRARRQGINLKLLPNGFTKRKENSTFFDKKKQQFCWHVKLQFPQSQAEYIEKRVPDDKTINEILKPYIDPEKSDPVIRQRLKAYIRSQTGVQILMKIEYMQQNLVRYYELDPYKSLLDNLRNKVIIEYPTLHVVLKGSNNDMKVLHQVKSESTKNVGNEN
UniProt Q15776: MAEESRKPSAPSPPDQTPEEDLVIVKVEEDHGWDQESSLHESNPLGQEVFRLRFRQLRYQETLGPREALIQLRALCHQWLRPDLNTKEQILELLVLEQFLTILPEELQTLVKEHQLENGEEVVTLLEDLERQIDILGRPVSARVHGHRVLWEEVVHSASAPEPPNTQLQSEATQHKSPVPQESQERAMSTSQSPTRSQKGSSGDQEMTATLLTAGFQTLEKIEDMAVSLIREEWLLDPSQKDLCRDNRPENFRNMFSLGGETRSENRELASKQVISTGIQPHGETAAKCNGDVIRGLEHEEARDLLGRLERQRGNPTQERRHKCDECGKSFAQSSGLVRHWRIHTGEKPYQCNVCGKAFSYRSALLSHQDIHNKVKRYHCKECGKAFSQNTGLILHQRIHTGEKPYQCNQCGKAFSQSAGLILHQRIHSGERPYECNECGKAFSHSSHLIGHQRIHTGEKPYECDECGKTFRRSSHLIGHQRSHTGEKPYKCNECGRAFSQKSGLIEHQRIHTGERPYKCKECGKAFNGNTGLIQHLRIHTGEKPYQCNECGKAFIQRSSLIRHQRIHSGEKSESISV
UniProt Q9ULJ6: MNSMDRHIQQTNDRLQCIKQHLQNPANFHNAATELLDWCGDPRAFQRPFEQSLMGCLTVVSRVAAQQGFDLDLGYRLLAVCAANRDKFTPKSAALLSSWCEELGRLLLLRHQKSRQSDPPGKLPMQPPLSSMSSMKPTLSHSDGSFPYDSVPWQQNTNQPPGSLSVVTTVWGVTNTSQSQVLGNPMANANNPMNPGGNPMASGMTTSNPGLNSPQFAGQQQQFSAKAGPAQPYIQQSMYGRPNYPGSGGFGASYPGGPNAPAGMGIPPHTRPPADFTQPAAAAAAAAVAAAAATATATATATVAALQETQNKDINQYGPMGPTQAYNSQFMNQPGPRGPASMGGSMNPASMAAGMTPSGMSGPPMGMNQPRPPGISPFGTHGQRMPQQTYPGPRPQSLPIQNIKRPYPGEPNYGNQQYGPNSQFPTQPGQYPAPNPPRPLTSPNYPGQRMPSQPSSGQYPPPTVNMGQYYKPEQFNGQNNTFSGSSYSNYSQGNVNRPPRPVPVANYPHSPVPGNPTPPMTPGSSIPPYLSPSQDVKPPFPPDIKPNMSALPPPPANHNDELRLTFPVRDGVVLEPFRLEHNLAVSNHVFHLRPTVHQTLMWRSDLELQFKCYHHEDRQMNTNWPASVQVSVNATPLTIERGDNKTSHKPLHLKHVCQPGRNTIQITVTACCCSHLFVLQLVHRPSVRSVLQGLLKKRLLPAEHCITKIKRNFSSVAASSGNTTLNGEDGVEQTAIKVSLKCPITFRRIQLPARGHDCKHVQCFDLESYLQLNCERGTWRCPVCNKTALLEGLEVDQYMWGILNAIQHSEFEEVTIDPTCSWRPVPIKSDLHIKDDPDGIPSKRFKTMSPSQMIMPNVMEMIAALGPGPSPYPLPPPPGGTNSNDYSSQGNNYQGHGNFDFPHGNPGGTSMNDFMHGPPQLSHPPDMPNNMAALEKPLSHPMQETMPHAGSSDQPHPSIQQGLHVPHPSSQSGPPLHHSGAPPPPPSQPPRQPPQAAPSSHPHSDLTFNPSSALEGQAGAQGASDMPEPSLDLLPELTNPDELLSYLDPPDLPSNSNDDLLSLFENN
UniProt Q9H900: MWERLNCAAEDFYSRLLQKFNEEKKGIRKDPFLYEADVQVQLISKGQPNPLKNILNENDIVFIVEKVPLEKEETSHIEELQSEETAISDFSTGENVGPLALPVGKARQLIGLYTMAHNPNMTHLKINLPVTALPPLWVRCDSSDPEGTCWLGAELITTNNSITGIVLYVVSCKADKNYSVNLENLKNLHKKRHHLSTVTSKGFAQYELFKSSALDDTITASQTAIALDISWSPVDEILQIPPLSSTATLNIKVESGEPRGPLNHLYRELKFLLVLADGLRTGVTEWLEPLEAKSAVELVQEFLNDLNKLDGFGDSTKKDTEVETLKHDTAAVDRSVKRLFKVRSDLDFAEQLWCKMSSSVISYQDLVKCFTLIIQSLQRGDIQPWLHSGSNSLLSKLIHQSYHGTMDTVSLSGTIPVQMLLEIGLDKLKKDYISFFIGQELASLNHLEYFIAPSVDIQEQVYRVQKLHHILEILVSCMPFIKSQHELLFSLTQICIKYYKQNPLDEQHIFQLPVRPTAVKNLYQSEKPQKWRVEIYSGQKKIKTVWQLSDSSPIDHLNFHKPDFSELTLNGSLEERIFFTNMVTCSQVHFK
UniProt Q5VZL5: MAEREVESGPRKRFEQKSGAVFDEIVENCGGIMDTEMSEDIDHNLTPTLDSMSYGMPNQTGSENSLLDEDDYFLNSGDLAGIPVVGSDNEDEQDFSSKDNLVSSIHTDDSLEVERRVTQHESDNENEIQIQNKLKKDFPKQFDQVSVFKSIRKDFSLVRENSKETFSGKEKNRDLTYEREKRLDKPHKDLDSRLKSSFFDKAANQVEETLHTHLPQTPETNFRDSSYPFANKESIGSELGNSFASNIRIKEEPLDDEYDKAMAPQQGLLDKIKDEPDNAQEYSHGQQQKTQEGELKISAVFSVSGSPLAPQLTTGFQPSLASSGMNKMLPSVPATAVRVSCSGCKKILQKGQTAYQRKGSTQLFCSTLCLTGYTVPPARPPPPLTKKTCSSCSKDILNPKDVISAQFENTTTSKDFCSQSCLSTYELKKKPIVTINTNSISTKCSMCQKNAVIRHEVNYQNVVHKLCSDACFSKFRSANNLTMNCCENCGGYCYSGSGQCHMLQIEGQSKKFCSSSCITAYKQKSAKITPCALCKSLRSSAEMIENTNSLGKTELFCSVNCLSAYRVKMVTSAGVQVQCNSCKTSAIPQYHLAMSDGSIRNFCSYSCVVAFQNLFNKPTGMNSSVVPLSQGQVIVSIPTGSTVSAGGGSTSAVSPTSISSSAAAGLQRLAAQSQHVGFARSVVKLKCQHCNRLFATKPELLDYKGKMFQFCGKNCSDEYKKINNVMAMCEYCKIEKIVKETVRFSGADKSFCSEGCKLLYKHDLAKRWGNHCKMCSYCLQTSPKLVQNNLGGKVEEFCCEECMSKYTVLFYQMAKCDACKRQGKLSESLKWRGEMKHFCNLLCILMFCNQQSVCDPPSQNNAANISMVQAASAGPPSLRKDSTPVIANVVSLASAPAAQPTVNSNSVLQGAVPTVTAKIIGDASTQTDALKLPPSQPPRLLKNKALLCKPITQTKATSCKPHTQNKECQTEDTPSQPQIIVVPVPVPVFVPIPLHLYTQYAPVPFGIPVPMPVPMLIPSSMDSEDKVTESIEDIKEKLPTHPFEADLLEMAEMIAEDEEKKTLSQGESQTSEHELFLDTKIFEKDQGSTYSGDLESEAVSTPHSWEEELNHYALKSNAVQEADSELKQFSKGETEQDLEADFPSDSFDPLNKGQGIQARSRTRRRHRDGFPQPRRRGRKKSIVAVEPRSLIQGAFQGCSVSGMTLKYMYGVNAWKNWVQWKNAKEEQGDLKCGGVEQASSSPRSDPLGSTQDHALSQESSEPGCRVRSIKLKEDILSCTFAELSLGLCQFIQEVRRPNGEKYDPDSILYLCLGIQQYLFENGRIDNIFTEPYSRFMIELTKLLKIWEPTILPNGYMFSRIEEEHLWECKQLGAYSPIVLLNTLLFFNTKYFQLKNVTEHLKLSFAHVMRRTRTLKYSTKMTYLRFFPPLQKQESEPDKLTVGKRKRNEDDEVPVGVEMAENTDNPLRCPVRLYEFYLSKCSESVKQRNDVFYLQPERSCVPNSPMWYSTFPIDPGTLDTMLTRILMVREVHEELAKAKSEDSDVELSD
UniProt Q8NHG8: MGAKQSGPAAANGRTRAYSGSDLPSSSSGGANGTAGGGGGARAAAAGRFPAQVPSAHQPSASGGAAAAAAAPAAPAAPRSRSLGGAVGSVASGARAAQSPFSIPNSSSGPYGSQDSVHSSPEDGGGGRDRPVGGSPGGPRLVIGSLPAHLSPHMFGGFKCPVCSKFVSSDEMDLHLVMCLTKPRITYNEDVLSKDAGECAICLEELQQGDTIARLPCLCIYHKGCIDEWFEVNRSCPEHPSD
UniProt Q14592: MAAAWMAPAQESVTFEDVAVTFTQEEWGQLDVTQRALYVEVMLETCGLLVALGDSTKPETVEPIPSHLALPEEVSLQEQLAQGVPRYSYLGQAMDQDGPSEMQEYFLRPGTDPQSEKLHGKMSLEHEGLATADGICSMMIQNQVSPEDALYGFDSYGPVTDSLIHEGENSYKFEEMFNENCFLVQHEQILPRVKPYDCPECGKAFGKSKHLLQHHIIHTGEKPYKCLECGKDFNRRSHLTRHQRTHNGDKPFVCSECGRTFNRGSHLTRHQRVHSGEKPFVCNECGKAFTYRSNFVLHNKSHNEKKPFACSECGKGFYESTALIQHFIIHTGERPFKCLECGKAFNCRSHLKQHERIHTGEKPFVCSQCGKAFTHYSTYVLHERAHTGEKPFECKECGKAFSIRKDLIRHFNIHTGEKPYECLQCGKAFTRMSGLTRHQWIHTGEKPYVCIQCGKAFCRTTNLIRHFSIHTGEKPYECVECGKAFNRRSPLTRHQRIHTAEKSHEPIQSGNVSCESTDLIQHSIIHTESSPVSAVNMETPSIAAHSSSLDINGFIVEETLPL
UniProt Q8IYB9: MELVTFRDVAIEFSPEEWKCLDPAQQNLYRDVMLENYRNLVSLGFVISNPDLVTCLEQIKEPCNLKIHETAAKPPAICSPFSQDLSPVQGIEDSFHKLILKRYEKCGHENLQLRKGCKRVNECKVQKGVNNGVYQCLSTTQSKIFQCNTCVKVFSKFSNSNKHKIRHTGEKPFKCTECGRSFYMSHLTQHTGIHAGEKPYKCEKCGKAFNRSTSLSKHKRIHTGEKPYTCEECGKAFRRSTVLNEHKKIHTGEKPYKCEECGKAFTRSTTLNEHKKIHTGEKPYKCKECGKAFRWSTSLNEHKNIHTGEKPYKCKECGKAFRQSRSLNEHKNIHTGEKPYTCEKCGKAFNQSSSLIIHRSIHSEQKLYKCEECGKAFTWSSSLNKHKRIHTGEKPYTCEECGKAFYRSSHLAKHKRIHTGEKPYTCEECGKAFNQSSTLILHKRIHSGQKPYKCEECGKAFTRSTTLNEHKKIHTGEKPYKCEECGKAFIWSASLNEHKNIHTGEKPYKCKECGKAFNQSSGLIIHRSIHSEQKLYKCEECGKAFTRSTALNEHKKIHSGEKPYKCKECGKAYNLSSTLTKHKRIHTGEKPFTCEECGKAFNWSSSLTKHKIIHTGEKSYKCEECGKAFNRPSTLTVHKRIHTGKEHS
UniProt Q96ME7: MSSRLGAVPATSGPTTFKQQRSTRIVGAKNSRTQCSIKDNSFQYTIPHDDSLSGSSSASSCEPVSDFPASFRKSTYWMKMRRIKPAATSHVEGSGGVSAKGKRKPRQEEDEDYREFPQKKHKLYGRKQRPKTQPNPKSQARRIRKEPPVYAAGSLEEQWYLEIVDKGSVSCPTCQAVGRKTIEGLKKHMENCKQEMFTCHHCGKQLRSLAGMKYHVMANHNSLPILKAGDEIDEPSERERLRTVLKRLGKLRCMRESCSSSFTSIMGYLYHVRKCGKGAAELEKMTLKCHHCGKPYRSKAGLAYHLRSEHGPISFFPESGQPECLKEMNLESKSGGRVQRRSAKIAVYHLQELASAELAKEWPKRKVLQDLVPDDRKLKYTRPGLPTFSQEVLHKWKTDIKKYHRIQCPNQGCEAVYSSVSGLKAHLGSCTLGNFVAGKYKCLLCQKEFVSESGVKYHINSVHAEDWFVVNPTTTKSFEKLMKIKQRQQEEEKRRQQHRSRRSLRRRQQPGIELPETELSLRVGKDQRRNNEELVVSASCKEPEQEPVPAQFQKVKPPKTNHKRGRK
UniProt Q9Y3S2: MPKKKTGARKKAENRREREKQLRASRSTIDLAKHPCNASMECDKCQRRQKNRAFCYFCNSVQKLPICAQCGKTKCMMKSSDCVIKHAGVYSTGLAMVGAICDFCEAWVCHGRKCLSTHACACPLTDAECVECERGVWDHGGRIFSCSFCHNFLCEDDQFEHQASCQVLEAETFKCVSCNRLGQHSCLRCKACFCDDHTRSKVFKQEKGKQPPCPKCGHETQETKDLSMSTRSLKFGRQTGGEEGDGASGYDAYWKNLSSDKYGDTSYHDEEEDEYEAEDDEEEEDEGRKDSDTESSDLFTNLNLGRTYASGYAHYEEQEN

vorinostat = compound: O=C(CCCCCCC(=O)Nc1ccccc1)NO [vorinostat]
Procedure, shortened: as §1

silmitasertib = compound: O=C(O)c1ccc2c(c1)nc(Nc1cccc(Cl)c1)c1ccncc12 [silmitasertib]
Procedure, shortened: as §1

[2] = compound: O=C1NC(=O)C(c2cnc3ccccn23)=C1c1cn2c3c(cc(F)cc13)CN(C(=O)N1CCCCC1)CC2
Procedure, shortened: as §1

entospletinib = compound: c1cn2cc(-c3ccc4cn[nH]c4c3)nc(Nc3ccc(N4CCOCC4)cc3)c2n1 [entospletinib]
Procedure, shortened: as §1

Measured: log2 fold change

ZNF318 (UniProt Q5VUA4)
inactive: [1] 0.064 | silmitasertib -0.045 | [2] -0.059 | entospletinib -0.024
active: vorinostat -0.332

ZYG11B (UniProt Q9C0D3)
inactive: [1] 0 | vorinostat -0.083 | silmitasertib -0.001 | [2] 0.086 | entospletinib -0.038

ZNHIT6 (UniProt Q9NWK9)
active: vorinostat -0.218
inactive: [1] 0.001 | silmitasertib -0.041 | [2] 0.002 | entospletinib -0.062

ZKSCAN8 (UniProt Q15776)
inactive: [1] 0.015 | vorinostat 0.229 | silmitasertib -0.005 | [2] 0.055 | entospletinib -0.002

ZNF511 (UniProt Q8NB15)
inactive: [1] 0.211 | vorinostat -0.107 | silmitasertib -0.027 | [2] 0.018 | entospletinib -0.036

ZMIZ1 (UniProt Q9ULJ6)
inactive: [1] 0.007 | vorinostat -0.066 | silmitasertib -0.007 | [2] -0.001 | entospletinib -0.022

ZNRD2 (UniProt O60232)
inactive: [1] -0.07 | vorinostat -0.106 | silmitasertib -0.002 | [2] -0.021 | entospletinib -0.022

ZNHIT2 (UniProt Q9UHR6)
inactive: [1] -0.155 | vorinostat 0.087 | silmitasertib -0.04 | [2] -0.016 | entospletinib -0.006

ZHX1 (UniProt Q9UKY1)
inactive: [1] 0.043 | vorinostat -0.249 | silmitasertib -0.094 | [2] -0.018 | entospletinib -0.082

ZNF644 (UniProt Q9H582)
inactive: [1] -0.007 | vorinostat 0.222 | silmitasertib -0.092 | [2] 0.016 | entospletinib -0.022

ZNF428 (UniProt M0QXZ5)
inactive: [1] 0.006 | vorinostat 0.079 | silmitasertib 0.005 | [2] 0.026 | entospletinib 0.02

ZNF787 (UniProt Q6DD87)
inactive: [1] 0.284 | vorinostat 0.194 | silmitasertib 0.029 | [2] 0.092 | entospletinib 0.054

ZMYM2 (UniProt Q9UBW7)
active: vorinostat -0.609
inactive: [1] -0.125 | silmitasertib 0.034 | [2] 0.019 | entospletinib 0.069

ZWINT (UniProt O95229)
inactive: [1] 0.022 | vorinostat 0.129 | silmitasertib -0.015 | [2] 0 | entospletinib 0.016

ZZEF1 (UniProt O43149)
inactive: [1] 0.02 | silmitasertib 0.011 | [2] 0.012 | entospletinib 0.004
active: vorinostat -0.263

ZMAT2 (UniProt Q96NC0)
inactive: [1] 0.033 | vorinostat 0.188 | silmitasertib -0.051 | [2] -0.024 | entospletinib 0.021

ZNF277 (UniProt Q9NRM2)
inactive: [1] -0.007 | vorinostat -0.121 | silmitasertib 0.094 | [2] -0.044 | entospletinib 0.025

ZMYM1 (UniProt Q5SVZ6)
inactive: [1] -0.014 | vorinostat -0.202 | silmitasertib 0.042 | [2] -0.004 | entospletinib 0.021

ZNF217 (UniProt O75362)
active: vorinostat -0.301
inactive: [1] 0 | silmitasertib 0.047 | [2] -0.054 | entospletinib -0.061

ZNF579 (UniProt Q8NAF0)
inactive: [1] -0.085 | vorinostat 0.109 | silmitasertib -0.022 | [2] 0.058 | entospletinib -0.023

hCG_1984214 (UniProt I3L0E3)
inactive: [1] 0.035 | vorinostat -0.165 | silmitasertib 0.111 | [2] 0.048 | entospletinib -0.044

ZNF24 (UniProt P17028)
inactive: [1] 0 | vorinostat -0.174 | silmitasertib -0.023 | [2] -0.05 | entospletinib -0.016

ZYX (UniProt Q15942)
inactive: [1] -0.011 | vorinostat 0.127 | silmitasertib 0.01 | [2] 0.009 | entospletinib -0.012

ZZZ3 (UniProt Q8IYH5)
inactive: [1] 0.005 | vorinostat -0.302 | silmitasertib -0.073 | [2] 0.142 | entospletinib -0.021

ZRANB2 (UniProt O95218)
inactive: [1] 0.009 | vorinostat 0.095 | silmitasertib 0.022 | [2] 0 | entospletinib -0.018

ZNF239 (UniProt Q16600)
inactive: [1] 0.105 | vorinostat -0.01 | silmitasertib -0.105 | [2] 0.019 | entospletinib -0.056

ZSWIM8 isoform 4 (UniProt A7E2V4)
inactive: [1] 0.079 | vorinostat -0.07 | silmitasertib 0.081 | [2] 0.071 | entospletinib -0.018

ZWILCH (UniProt Q9H900)
inactive: [1] -0.032 | vorinostat -0.158 | silmitasertib 0.005 | [2] -0.019 | entospletinib -0.025

ZMYM4 (UniProt Q5VZL5)
inactive: [1] 0.05 | silmitasertib -0.016 | [2] 0.009 | entospletinib -0.013
active: vorinostat -0.383

ZNF768 (UniProt Q9H5H4)
inactive: [1] 0.01 | vorinostat 0.051 | silmitasertib 0.022 | [2] -0.081 | entospletinib -0.015

ZNF148 (UniProt Q9UQR1)
inactive: [1] 0.017 | vorinostat -0.015 | silmitasertib 0.169 | [2] -0.068 | entospletinib -0.084

ZMIZ2 (UniProt Q8NF64)
inactive: [1] 0.028 | vorinostat 0.142 | silmitasertib 0.044 | [2] -0.011 | entospletinib -0.131

ZNF143 (UniProt P52747)
inactive: [1] 0 | vorinostat 0.151 | silmitasertib -0.012 | [2] -0.011 | entospletinib 0.017

ZNF638 (UniProt Q14966)
inactive: [1] 0.046 | vorinostat -0.048 | silmitasertib -0.014 | [2] -0.028 | entospletinib -0.045

ZNF358 (UniProt Q9NW07)
inactive: vorinostat 0.08 | silmitasertib 0.143

ZYG11A (UniProt Q6WRX3)
inactive: silmitasertib 0.17
active: vorinostat 0.719

ZPR1 (UniProt O75312)
inactive: [1] 0.008 | vorinostat 0.105 | silmitasertib -0.009 | [2] -0.018 | entospletinib 0.012

ZNF800 (UniProt Q2TB10)
inactive: vorinostat 0.196 | silmitasertib 0.003

ZNRF2 (UniProt Q8NHG8)
inactive: [1] 0.011 | [2] -0.008 | entospletinib -0.068

Random excerpt: three records from the list
ZNRF2 (UniProt Q8NHG8)
inactive: [1] 0.011 | [2] -0.008 | entospletinib -0.068

ZNF638 (UniProt Q14966)
inactive: [1] 0.046 | vorinostat -0.048 | silmitasertib -0.014 | [2] -0.028 | entospletinib -0.045

ZNF800 (UniProt Q2TB10)
inactive: vorinostat 0.196 | silmitasertib 0.003

Further results.

ZNF460 (UniProt Q14592)
inactive: [1] -0.154 | entospletinib 0.049

ZNHIT3 (UniProt Q15649)
inactive: [1] -0.037 | vorinostat 0.04 | silmitasertib 0.049 | [2] 0.108 | entospletinib -0.141

Two successive entries out of the list so far, for reference:
ZNRF2 (UniProt Q8NHG8)
inactive: [1] 0.011 | [2] -0.008 | entospletinib -0.068

ZNF460 (UniProt Q14592)
inactive: [1] -0.154 | entospletinib 0.049

Going on with the list:

ZNF101 (UniProt Q8IZC7)
inactive: vorinostat -0.207 | silmitasertib 0.265 | [2] -0.022

ZNF77 (UniProt Q15935)
inactive: [1] 0.16 | entospletinib 0.028

ZNF593 (UniProt O00488)
inactive: [1] -0.029 | vorinostat 0.191 | silmitasertib -0.001 | [2] 0.044 | entospletinib 0.027

ZNF830 (UniProt Q96NB3)
inactive: [1] -0.021 | vorinostat 0.072 | silmitasertib 0.001 | [2] 0.027 | entospletinib -0.004

ZNF691 (UniProt Q5VV52)
inactive: [1] -0.02 | [2] 0.074 | entospletinib 0.074

ZNF670 (UniProt Q9BS34)
inactive: vorinostat -0.04 | silmitasertib 0.014

ZNRD1 (UniProt Q9P1U0)
inactive: vorinostat 0.115 | silmitasertib 0.022

ZNF407 (UniProt Q9C0G0)
inactive: [1] 0.034 | vorinostat -0.081 | silmitasertib -0.163 | entospletinib -0.003

ZNF708 (UniProt P17019)
inactive: [1] 0.025 | entospletinib 0.102

ZNF451 (UniProt Q9Y4E5)
inactive: [1] 0.064 | silmitasertib -0.003 | [2] -0.013 | entospletinib 0.019
active: vorinostat -0.538

ZNF595 (UniProt Q8IYB9)
inactive: [1] -0.01 | [2] -0.054 | entospletinib -0.049

ZMAT5 (UniProt Q9UDW3)
inactive: vorinostat -0.004 | silmitasertib 0.031

ZNF669 (UniProt Q96BR6)
inactive: vorinostat 0.103 | silmitasertib 0.006 | [2] -0.09

ZNF618 (UniProt B1ALC2)
inactive: [1] 0.092 | [2] 0.054 | entospletinib 0.121

ZNF512 (UniProt Q96ME7)
inactive: [1] -0.129 | vorinostat -0.052 | silmitasertib 0.027 | [2] -0.039 | entospletinib 0.032

ZNF330 (UniProt Q9Y3S2)
inactive: [1] 0.052 | vorinostat 0.111 | silmitasertib 0.005 | [2] 0.067 | entospletinib 0.007

ZNF771 (UniProt Q7L3S4)
inactive: vorinostat 0.238 | silmitasertib 0.065

ZNF618 (UniProt Q5T7W0)
inactive: [1] 0.041 | vorinostat 0.002 | silmitasertib -0.058 | [2] -0.02 | entospletinib 0.004

ZNF526 (UniProt Q8TF50)
inactive: vorinostat -0.112 | silmitasertib 0.041

— the supplement of paper PMC10849652
